This is one part of the list. Shown are side measurements of this screen, not its main read-out; they come without a call. Compounds called inactive in the main read-out are mostly missing here. Potencies come from curve fits of mixed quality, noted in brackets.
Assay: qHTS Assay to Find Inhibitors of Chronic Active B-Cell Receptor Signaling
Conditions: ABC-DLBCL IkBa-CBG/CBR reporter, luminescence ratio (green luciferase fused to IkBa over red control in TMD8 lymphoma cells), 4 h
From the text: NIH Molecular Libraries Probe Production Network [MLPCN] NIH Chemical Genomics Center [NCGC] MLPCN Grant: 1 R03 DA031086-01A1 PI Name: Dr. R. Eric Davis NCGC Assay Overview: Diffuse large B-cell lymphoma (DLBCL) is the most common category of non-Hodgkin lymphoma, with ~20,000 new cases per year in the United States. DLBCL should be regarded as a collection of different neoplasms. Microarray gene expression analysis has defined two principal types of DLBCL, named for their similarity to normal B cell stages or activation states: a germinal center B-cell (GCB) type, and an activated B-cell (ABC) type. In ABC-DLBCL, a constitutive high-level activity of the NF-kappaB family of transcription factors has been observed (1) and NF-kappaB target genes are more highly expressed in ABC primary tumors than in GCB tumors. Functional studies have shown a constitutive high-level activity of the IkappaB (inhibitor of kappa-B) kinase (IKK) complex. […] Further analysis of DLBCL primary tumors for NF-kappaB target gene expression imply that although CARD11 is required for constitutive IKK activity in all ABC-DLBCL lines, mutations in CARD11 may be the root cause of IKK activation only in lines or tumors with such mutations. In other words, CARD11 mutations may explain NF-kappaB activation in only 10% of ABC-DLBCL cases. […] This process has been termed 'chronic active BCR signaling' (CABS). The goal of this screen is to find small-molecule inhibitors of the CABS pathway found in ABC-DLBCL lines using a cell-based assay that measures IkappaBalpa stability, which has already been extensively validated in the OCI-Ly3 line (PubChem AID:445; REF: 4). […] The assay uses green (CBG68) and red (CBR) emitting beetle luciferases [Chroma-GloTM developed by Promega Corp.] where the green luciferase is fused to IkappaBalpha and the red luciferase is present in its native state. Both luciferase genes are stably present in the TMD8 human ABC DLBCL cell line, but their expression is under the control of tetracycline-inducible promoters. Following the addition of doxycycline to induce expression of the luciferases, the green luminescence in control cultures rises only slowly because the CBG fusion partner IkappaBalpha is targeted by IKK activity for rapid degradation. In contrast, green luminescence rises rapidly in the presence of proteasome inhibitors or IKK inhibitors. The rise in red luminescence of CBR is not affected by proteasome or IKK inhibitors, and serves as normalization for cell number and nonspecific effects. Compounds were screened as a concentration-titration series that ranged from 46 uM to 3 nM.
NCGC Assay Protocol Summary: Cells were seeded in 1536-well plates at 5000 cells/4uL in IMDM medium containing 0.5% FBS, w/o phenol red, 1% penicillin/streptomycin. Then, 23 nL of compounds or DMSO were delivered to each well using a pin tool. One uL 20ng/ml doxycycline was then dispensed into white solid 1536-well plates and the plates were incubated at 37C/5% C02 in a cell incubator for 4 hrs. Then 4 uL luminescent substrate mix (in-house prepared: 150 mM Tris-Cl, pH 7.6, 3 mM MgCl2, 1% Triton X-100, 5 mM DTT, 0.2 mM CoA, 0.15 mM ATP, 5 mM D-luciferin, final concentrations) was added to each well. The plate was incubated at r.t. for 10-15 min. The plates were measured on a ViewLux plate reader for green luminescence (540/20 nm filter) and red luminescence (618/8 nm filter). The green and red luminescent signals were corrected for red and green luminescence filter overlap using previously determined filter calibration constants (determined using the procedure outlined in the Promega Technical Manual; REF 4). The %Activity was determined from the ratio of corrected green/red luminescent values. MG132 were used as control. […] Red luminescent %Activity was normalized to the difference between red luminesence in basal cells (0%Activity) and zero luminescence (-100% Activity). […]

[1] = measured here: CBR red luminescence, cell number
[2] = measured here: IkBa-CBG green luminescence

Row | SMILES | AC50 [1] | AC50 [2]
1 | Cc1ccc(/C=C/C2=NN(Cc3ccccc3)C(=O)CC2)cc1 | 16.4 µM [rising, single point] | 
2 | Cc1nn(C)c(C)c1CN(C)C(=O)c1cnn2c1NC(c1ccccc1)CC2C(F)(F)F (stereo not drawn) | 22.4 µM [rising, single point] | 
3 | Cc1nc2c(-c3ccc(Cl)cc3)c(C)[nH]n2c(=O)c1Cc1ccccc1 | 20 µM [falling, single point] | 
4 | O=C(N/N=C/c1ccncc1)c1cc2ccccc2o1 | 18.4 µM [falling, partial curve, poor fit] | 
5 | Cc1ccc(C(=O)Nc2sc3c(c2C(=O)O)CCCC3)o1 | 1.26 µM [falling, full curve, poor fit] | 
6 | COc1ccc2oc(C(=O)Nc3nccs3)c(C)c2c1 | 1.16 µM [falling, full curve] | 
7 | COc1ccc(NC(=O)C2C3CCC4C(CCC32)C4(Cl)Cl)cc1 (stereo not drawn) | 4.61 µM [rising, full curve] | 
8 | COC(=O)C(O)(NC(=O)OCc1ccccc1)C(F)(F)F (stereo not drawn) | 0.082 µM [rising, full curve, poor fit] | 
9 | O=C(CSc1ccccn1)Nc1nc2c(ccc3ccccc32)s1 | 8.2 µM [falling, partial curve] | 14.6 µM [rising, partial curve, poor fit]
10 | CCC1CCCCN1CCCCOc1cccc(Cl)c1 (stereo not drawn) | 2.82 µM [falling, partial curve, poor fit] | 
11 | CC(=O)c1ccc(-c2ccc(C(=O)NC3CCCCCC3)o2)cc1 | 11.2 µM [falling, partial curve, poor fit] | 
12 | Cc1cc(-c2ccc(C(=O)O)s2)cnc1N | 2 µM [falling, full curve] | 
13 | CC(C)Oc1c(Br)cc(Br)cc1/C=N/NC(N)=S | 23.1 µM [falling, partial curve, poor fit] | 18.4 µM [falling, single point]
14 | O=C(CSc1nnc(-c2cccnc2)o1)Nc1nccs1 |  | 29.1 µM [falling, single point]
15 | CN(C)S(=O)(=O)N(CC(=O)N(Cc1ccccc1)Cc1ccccc1)c1ccccc1 | 2.91 µM [falling, single point] | 
16 | N#Cc1c(NC(=O)c2cccc(S(=O)(=O)Nc3ccc(C(=O)O)cc3)c2)sc2c1CCCC2 | 20 µM [falling, single point] | 

Row | SMILES | AC50 [1] | AC50 [2]
17 | COc1cc(/C=C2\SC(=O)N(c3ccc(O)cc3)C2=O)cc(OC)c1OC | 2.51 µM [falling, full curve, poor fit] | 
18 | Cc1ccccc1-c1cc(C(=O)O)nn1CC1CC(c2cccc([N+](=O)[O-])c2)=NO1 (stereo not drawn) | 16.4 µM [falling, single point] | 
19 | COc1ccccc1NS(=O)(=O)c1ccc(C)c(C(=O)NCc2cccnc2)c1 | 1.3 µM [falling, full curve, poor fit] | 
20 | O=S1(=O)CCOC[C@H](CC2CCCCC2)N1Cc1cccc(F)c1 | 12.6 µM [falling, partial curve, poor fit] | 
21 | Cc1c(C(=S)NC(=O)C2CC2)c(=O)n(-c2ccccc2)n1C | 2.24 µM [rising, full curve] | 
22 | COc1cccc(NC(=O)CSc2nc3ccccc3cc2Cc2ccccc2)c1 | 6.31 µM [falling, single point] | 
23 | Cn1c(N)c(C(=O)COC(=O)c2ccc(Cl)c(S(=O)(=O)N3CCCCC3)c2)c(=O)n(C)c1=O | 4.61 µM [rising, full curve, poor fit] | 
24 | CCOc1ccc(S(=O)(=O)N2CCN(S(=O)(=O)c3ccc(OCC)cc3)C(C)C2)cc1 (stereo not drawn) | 11.2 µM [rising, partial curve, poor fit] | 
25 | Cc1ccccc1NC(=O)c1ccc(CN2CCC(Cc3ccccc3)CC2)cc1 | 0.562 µM [falling, full curve] | 
26 | CCOc1ccccc1C1CC(=O)Nc2cc(OC)c(OC)c(OC)c21 (stereo not drawn) | 0.794 µM [rising, full curve, poor fit] | 
27 | Cc1cc(C)nc(Nc2n[nH]c(-c3ccccc3N)n2)n1 | 11.2 µM [falling, partial curve, poor fit] | 
28 | c1ccc(CCc2nc(-c3cccnc3)no2)cc1 | 14.6 µM [falling, partial curve, poor fit] | 
29 | CN(C)C(=O)c1cccn(Cc2ccc(C(F)(F)F)cc2)c1=O | 0.2 µM [falling, full curve, poor fit] | 
30 | O=C(CN1C(=O)COc2ccc(S(=O)(=O)N3CCCCCC3)cc21)NCc1ccc(Cl)cc1 | 8.91 µM [falling, single point] | 
31 | CCSc1nsc(NC(=O)Nc2ccc(F)cc2F)n1 | 0.316 µM [falling, full curve] | 

Reprinted at random: 2 records from the list.
Row | SMILES | AC50 [1] | AC50 [2]
17 | COc1cc(/C=C2\SC(=O)N(c3ccc(O)cc3)C2=O)cc(OC)c1OC | 2.51 µM [falling, full curve, poor fit] | 
19 | COc1ccccc1NS(=O)(=O)c1ccc(C)c(C(=O)NCc2cccnc2)c1 | 1.3 µM [falling, full curve, poor fit] | 
